Test results published in patent publication EP2908837B1 (priority 2012, dated 2014).

Test: general procedure: Fmoc solid-phase peptide synthesis; Rink Amide AM, Wang, Barlos (2-chlorotrityl chloride) or Sieber Amide on polystyrene-1% DVB; HBTU or HATU; PyBop/DIEA for conjugation in solution
Settings: conjugation step

## Cya-PEG2-K(P)-K(P)-NH2
  conjugation yield: 24%
